Laboratory results as given in publication PMC4378997.

Target: T1, Pds1-GFP (S. cerevisiae) (UniProt P40316)
T1 sequence: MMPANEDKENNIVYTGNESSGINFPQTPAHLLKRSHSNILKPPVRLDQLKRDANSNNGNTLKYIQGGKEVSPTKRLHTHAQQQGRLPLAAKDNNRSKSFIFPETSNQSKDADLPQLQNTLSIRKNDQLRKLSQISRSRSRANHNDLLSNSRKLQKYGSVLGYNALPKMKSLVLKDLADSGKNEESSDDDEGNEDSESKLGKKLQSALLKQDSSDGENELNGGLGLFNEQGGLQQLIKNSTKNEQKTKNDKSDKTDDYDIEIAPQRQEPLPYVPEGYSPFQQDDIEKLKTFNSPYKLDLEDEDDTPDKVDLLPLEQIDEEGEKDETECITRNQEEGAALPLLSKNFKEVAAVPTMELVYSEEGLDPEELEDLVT
Test: co-IP; GFP-Trap_A beads on 5mg yeast whole cell lysate, 4°C 1.5 h, washes with 400mM NaCl and 0.5% Triton; pGAL1-Ty1-H3 induced 24 h with galactose; blots with anti-GFP and anti-IN (8B11); logarithmic cells, also cells arrested with alpha-factor or nocodazole, and cells depleted of Pds1 (TetO7-PDS1, doxycycline 1 h) or Smc1 (TetO7-SMC1, doxycycline 6 h)

binding: binds weakly
Substance: Ty1 integrase expressed from pGAL1-Ty1-H3 (S. cerevisiae) (enzyme)

Results are given in words; binding and its absence hold for the method and conditions named. Binding seen in cells or lysates may run through a third protein. A result given as binding can be weak or reduced; the word gives no strength. Where a sequence is shown, tags or fusion partners need not be part of it.
